Source: patent US20160251403A1, “PEPTIDE COMBINATIONS AND USES THEREOF IN TREATING DUST MITE ALLERGY” (ALK-ABELLO A/S, priority 2013, published 2016)

By UniProt entry, the sequences of proteins in these tests, tags left out. Where a name states a change or a piece, a line headed by the entry shows the natural chain unless it says otherwise.
UniProt P01903: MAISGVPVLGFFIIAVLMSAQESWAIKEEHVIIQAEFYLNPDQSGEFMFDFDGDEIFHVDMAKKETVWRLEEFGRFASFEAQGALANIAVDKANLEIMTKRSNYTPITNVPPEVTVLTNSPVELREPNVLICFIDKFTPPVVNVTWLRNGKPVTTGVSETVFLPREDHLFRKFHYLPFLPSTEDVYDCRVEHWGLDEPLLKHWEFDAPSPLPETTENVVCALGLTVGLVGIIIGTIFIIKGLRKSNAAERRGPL

Tests used:
Experiment in all cases: competitive MHC II binding assay; number of alleles bound
[1] = target: DRB3_0101 (human) (UniProt P01903)
[2] = target: DRB5_0101 (human) (UniProt P01903)
[3] = target: HLA-DPA10103-DPB10402 (human)
[4] = target: HLA-DQA10101-DQB10501 (human)
[5] = target: HLA-DQA10401-DQB10402 (human)
[6] = target: DRB1_1101 (human) (UniProt P01903)
[7] = target: HLA-DPA10103-DPB10401 (human)
[8] = target: HLA-DPA10103-DPB10301 (human)
[9] = target: DRB1_0401 (human) (UniProt P01903)
[10] = target: DRB1_0101 (human) (UniProt P01903)
[11] = target: DRB1_0802 (human) (UniProt P01903)
[12] = target: DRB1_0901 (human) (UniProt P01903)
[13] = target: DRB1_0301 (human) (UniProt P01903)
[14] = target: DRB3_0202 (human) (UniProt P01903)
[15] = target: DRB1_0701 (human) (UniProt P01903)
[16] = target: HLA-DQA10102-DQB10602 (human)
[17] = target: HLA-DQA10501-DQB10201 (human)
[18] = target: HLA-DQA10501-DQB10301 (human)
[19] = target: HLA-DPA10201-DPB10101 (human)
[20] = target: HLA-DPA10202-DPB10501 (human)
[21] = target: DRB1_1501 (human) (UniProt P01903)
[22] = target: HLA-DPA10103-DPB10201 (human)
[23] = target: HLA-DQA10301-DQB10302 (human)
[24] = target: DRB1_1302 (human) (UniProt P01903)
[25] = target: HLA-DPA10201-DPB11401 (human)
[26] = target: DRB1_0405 (human) (UniProt P01903)
[27] = target: DRB1_1201 (human) (UniProt P01903)
[28] = target: DRB4_0101 (human) (UniProt P01903)

B1: HDM03W (peptide)
peptide: ELVDSASQHG
binding [1]: no binding (tested: IC50 cutoff 1000 nM)
binding [2]: no binding (tested: IC50 cutoff 1000 nM)
binding [3]: no binding (tested: IC50 cutoff 1000 nM)
binding [4]: no binding (tested: IC50 cutoff 1000 nM)
binding [5]: no binding (tested: IC50 cutoff 1000 nM)
binding [6]: no binding (tested: IC50 cutoff 1000 nM)
binding [7]: no binding (tested: IC50 cutoff 1000 nM)
binding [8]: no binding (tested: IC50 cutoff 1000 nM)
binding [9]: no binding (tested: IC50 cutoff 1000 nM)
binding [10]: no binding (tested: IC50 cutoff 1000 nM)
binding [11]: no binding (tested: IC50 cutoff 1000 nM)
binding [12]: no binding (tested: IC50 cutoff 1000 nM)
binding [13]: no binding (tested: IC50 cutoff 1000 nM)
binding [14]: no binding (tested: IC50 cutoff 1000 nM)
binding [15]: no binding (tested: IC50 cutoff 1000 nM)
binding [16]: no binding (tested: IC50 cutoff 1000 nM)
binding [17]: no binding (tested: IC50 cutoff 1000 nM)
binding [18]: no binding (tested: IC50 cutoff 1000 nM)
binding [19]: no binding (tested: IC50 cutoff 1000 nM)
binding [20]: no binding (tested: IC50 cutoff 1000 nM)
binding [21]: no binding (tested: IC50 cutoff 1000 nM)
binding [22]: no binding (tested: IC50 cutoff 1000 nM)
binding [23]: no binding (tested: IC50 cutoff 1000 nM)
binding [24]: no binding (tested: IC50 cutoff 1000 nM)
binding [25]: no binding (tested: IC50 cutoff 1000 nM)
binding [26]: no binding (tested: IC50 cutoff 1000 nM)
binding [27]: no binding (tested: IC50 cutoff 1000 nM)
binding [28]: no binding (tested: IC50 cutoff 1000 nM)

No constants are given. Whether binding was seen depends on the method and setting.
